Measured values taken from PMC7035326.
These are yes or no findings as the source states them, for the method shown. In cells and extracts the contact can be indirect.

Target: T1, human SAV1 (human) (UniProt Q9H4B6)
T1 sequence: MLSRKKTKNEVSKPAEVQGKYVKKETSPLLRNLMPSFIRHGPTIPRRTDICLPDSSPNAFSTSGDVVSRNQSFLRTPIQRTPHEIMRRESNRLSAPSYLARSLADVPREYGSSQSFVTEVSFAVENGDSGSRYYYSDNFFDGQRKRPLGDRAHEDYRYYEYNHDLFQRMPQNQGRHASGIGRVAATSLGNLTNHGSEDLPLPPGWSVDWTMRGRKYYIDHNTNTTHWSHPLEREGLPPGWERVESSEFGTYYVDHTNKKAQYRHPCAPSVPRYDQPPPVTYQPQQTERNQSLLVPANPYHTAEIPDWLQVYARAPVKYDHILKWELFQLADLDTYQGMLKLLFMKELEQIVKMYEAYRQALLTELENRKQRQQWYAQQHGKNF
Test: pull-down; HEK293T cells transfected with the indicated constructs and subjected to the pulldown assay; beads, tags and buffers not told in the text shown

## Acanthamoeba castellanii Hippo (enzyme)
  binding: no binding
